# PubChem BioAssay AID1458 (National Center for Advancing Translational Sciences (NCATS), 2008)
# About 5,900 (2.8%) of roughly 210,000 compounds were called active. Inconclusive results (about 5%) are left out. Calls come from the whole dose curve; as a rule, active = well fitted activation curve with a large enough effect; inconclusive = small, poorly fitted or top-dose-only effect; inactive = no such curve, though single readings can be large or run the other way. This is a selection; strong and weak results do not stand in their true shares. Entries without a call were filed so in the source.
# Assay: qHTS Assay for Enhancers of SMN2 Splice Variant Expression; note: nearly all actives have a fitted effect of over 55% in size; for activity change, positive = activation: % of control where 0% means no effect
# Details: HEK293 SMN2-luciferase splicing reporter, luminescence, 30-36 h; activity change, positive = activation: at 46.1 µM (top of the series) unless noted
# Summary of the method: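 HEK293 cells carry an SMN2 […]–luciferase reporter in which exon 7 inclusion puts luciferase in frame. Cells were plated 10-12 h before compound addition, then incubated 30-36 h at 37C. ONE-Glo luminescence was read; sodium butyrate at 4.5 mM final served as control.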
# Potency is the fitted concentration of half-maximal effect.
Compound,"activity change, positive = activation",Potency
Cc1[nH]n(-c2ccccc2)c(=O)c1/C=N/NC(=O)c1ccoc1C,-80.5%,
C=CCOc1ccc(Br)cc1/C=C1/SC(=Nc2ccc(C(=O)O)cc2)NC1=O,inactive: -18.1%,
CCOC(=O)C1=C(C)NC2=C(C(=O)CCC2)C1c1ccc(N(C)C)cc1 (centres undefined),37.7%,
Cc1cc(C(=O)NC2=NCCS2)cs1,,active: 11.2 µM
C=CS(=O)(=O)c1ccc(Oc2ccc(S(=O)(=O)C=C)cc2)cc1,inactive: -92.2%,
CCC(=O)N1CCN(c2ccc(NC(=O)c3cc4ccccc4o3)cc2Cl)CC1,inactive: -109%,
Cc1ccc(S(=O)(=O)Cc2ccc(C(=O)NCCc3ccc(Cl)cc3)o2)cc1,inactive: -39.7%,
CCCc1ccc(S(=O)(=O)NCCc2ccncc2)cc1,-99.1%,
Cc1onc(-c2ccccc2)c1C(=O)NNC(=S)NC(=O)/C=C/c1ccccc1,-86.7%,
O=C(O)c1ccc(CSCc2c(F)cccc2Cl)o1,44.7%,
COC(=O)c1sc(N2CCN(c3ccc(Cl)cc3)CC2)nc1N,inactive: -64.9%,
CCOC(=O)c1ccc(NC(=O)c2ccccc2)cc1,,active: 10 µM
O=C(NC1CCCCCC1)C1CCN(C(=O)Cc2ccccc2)CC1,30.1%,
Cc1ccc(-n2c(N)c(C(=O)Nc3ccccc3F)sc2=S)cc1C,inactive: -49.5%,
COC(=O)c1cccc(Nc2ncnc3sccc23)c1,inactive: -41.3%,
CCN(CC)C(=O)CSc1nc(-c2cccs2)cc(-c2cccs2)c1C#N,inactive: -33.2%,
CCn1cc(C(=O)NCc2ccc(C)cc2)c(=O)c2cc(S(=O)(=O)N3CCC(C)CC3)ccc21,29.6%,
CC1CCCN(C(=O)CCS(=O)(=O)Cc2ccccc2)C1 (centres undefined),34.5%,
CCc1cc(/C(Cc2csc(C)n2)=N/O)c(O)cc1O,inactive: -63.5%,
Cc1ccc(S(=O)(=O)N2CCCCC2)cc1NC(=O)COC(=O)c1cc[n+]([O-])cc1,36.8%,
O=C1CCc2nc3ccccc3c(=O)n2N1,55.2%,
COc1ccc(N2C(=O)CCC(C(=O)N3CCCCC3)C2c2ccc(F)cc2)cc1 (centres undefined),46.1%,
CC(=O)Nc1cccc(C(=O)N2CCN(Cc3ccccc3)CC2)c1,41.7%,

Compound,"activity change, positive = activation",Potency
Cc1oc(=O)c(NC(=O)c2ccccc2)cc1C(C)O (centres undefined),56.8%,
CCOC(=O)c1nnn(CC(=O)Nc2ccccc2)c1C(=O)OCC,12.6%,
CCCCCCCCCCCCC[N+](C)(C)Cc1ccccc1,inactive: -36.7%,
COc1ccc(CCNC(=O)c2nc3ncccn3n2)cc1OC,33%,
Cc1ccc(S(=O)(=O)Nc2ccc(C(OC(=O)c3ccccc3[N+](=O)[O-])(C(F)(F)F)C(F)(F)F)cc2)cc1,-87.1%,
CCc1ccc2c(c1)C1(NN=C(c3ccc(C)cc3)S1)C(=O)N2 (centres undefined),inactive: -45.1%,
CCC(=O)N1CCN(c2ccc(NC(=O)c3ccco3)cc2)CC1,39.6%,
O=C(OCCN1C(=O)c2ccccc2C1=O)c1cc(=O)[nH]c2ccccc12,34.3%,
CCOc1ccccc1N(CC(=O)Nc1ccccc1C(=O)NCc1ccco1)S(C)(=O)=O,35.1%,
COc1cc(S(=O)(=O)NCC2COCCO2)ccc1-n1cnnn1 (centres undefined),25.3%,
Nc1nc(CSc2ccccc2)nc(N2CCCCC2)n1,,active: 20 µM
CCCn1c(C)cc(C(=O)Cn2nnc3ccccc3c2=O)c1C,,active: 12.6 µM
O=C(CCC(=O)c1cccs1)c1cccs1,236%,
CN(c1ccc(C(=O)NCCSC(C)(C)C)cc1)S(C)(=O)=O,,active: 11.2 µM
O=C(N/N=C/c1cc([N+](=O)[O-])ccc1O)C12CC3CC(CC(C3)C1)C2,inactive: -93.4%,
Cc1cc2cc(CNC(=S)Nc3ccc(OC(F)F)cc3)ccc2n1C,inactive: -30.1%,
O=C(Nc1cccnc1)c1ccc(NC(=O)c2ccco2)cc1,31.3%,
COc1ccccc1-n1nc(C(=O)Nc2ccc3c(c2)OCO3)c2ccccc2c1=O,36.3%,
Cc1ccc(-c2nn3c(C)nnc3s2)cc1NC(=O)c1ccc(-c2cccc(Cl)c2)o1,inactive: -31.4%,
O=C(O)c1cccc(N/N=C/c2cccs2)c1,,active: 0.141 µM
Cc1cccc(C)c1N(CC(=O)N1CCN(C)CC1)S(C)(=O)=O,46.4%,
CCOc1cc2sc(N3CCC(C(=O)Nc4cc(C)cc(C)c4)CC3)nc2cc1Br,37.4%,
Cc1ccc(NC(=O)C(=O)NCc2ccco2)cc1,,active: 17.8 µM

Compound,"activity change, positive = activation",Potency
COc1cc(/C=N/O)ccc1OCc1ccc(Cl)cc1,,active: 6.31 µM
C=CCN(CC=C)c1cnn(-c2nc3ccccc3[nH]2)c(=O)c1Cl,87.3%,
O=C(Cn1c(CO)nc2ccccc21)Nc1cc(C(F)(F)F)ccc1N1CCOCC1,43.2%,
Cc1ccc(C2=Nc3ccccc3N=C(C(Cl)Cl)C2)cc1,inactive: -67.1%,
CCCCNC(=O)CN(c1cc(C(F)(F)F)ccc1Cl)S(C)(=O)=O,21.1%,
CC(CC(=O)Nc1ccc2c(c1)OCCO2)c1ccccc1 (centres undefined),,active: 11.2 µM
O=C(CSc1nnc(-c2ccncc2)n1Cc1ccco1)c1ccc(Cl)cc1,14.6%,
CCC1C/C(=C\c2cccnc2)C(=O)/C(=C/c2cccnc2)C1 (centres undefined),inactive: -84.7%,
COc1ccc(OC)c(C2C(C(C)=O)=C(O)C(=O)N2CCC(=O)O)c1 (centres undefined),39.9%,
CCOC(=O)c1cc(NC(=O)c2ccccc2)c(=O)n2c1oc1ccccc12,inactive: -39.9%,
COc1ccc2nc(NC(=O)c3nc(SC(C)C)ncc3Cl)sc2c1,62%,
Cc1ccc(C(=O)N2CCN(c3ccc(NC(=O)c4ccc(Br)o4)cc3)CC2)cc1,inactive: -86.7%,
CC(C)(C)OC(=O)N/N=C\c1cccnc1,82.5%,
C=CCn1cccc(C(=O)Nc2ccc(OC)cc2)c1=O,48.3%,
O=C(Nc1ccccc1)Nc1ccc(F)c([N+](=O)[O-])c1,inactive: -46.9%,
CN(C)c1ccc(NC2=C(Cl)C(=O)c3ccccc3C2=O)cc1,inactive: -82.6%,
CN(C(=O)c1cccc(C#N)c1)c1nnc(C2CCOC2)s1 (centres undefined),30.2%,
O=C(Nc1ccc(Cl)cc1)C1CCC(=O)N1Cc1ccccc1Cl (centres undefined),-20.9%,
CCc1ccc(N2CC(C(=O)Nc3ccc(C)c(S(=O)(=O)N4CCOCC4)c3)CC2=O)cc1 (centres undefined),-31.3%,
Cn1c(=O)c2[nH]c(N3CCOCC3)nc2n(-c2ccccc2)c1=O,31.2%,
CCN(c1ccccc1)S(=O)(=O)c1ccc(C(=O)Nc2nnc(C3CC3)o2)cc1,inactive: -40.8%,
CC(C)CCC(C)NC(=O)c1ccc2nccnc2c1 (centres undefined),34%,
COc1ccc(/C=C/C(=O)Nc2cccc(C(C)=O)c2)cc1,,active: 11.2 µM
